From PubChem BioAssay AID2685 (National Center for Advancing Translational Sciences (NCATS), 2010) come the findings set out here.

The list shows a part of the results. These are further read-outs of the screen, such as a control signal, another cell line or another target. No call is given for them. The list favours compounds with an active or inconclusive main result. Potencies come from curve fits of mixed quality, noted in brackets.

A short description of the experiment: qHTS Assay for Lipid Storage Modulators in Drosophila S3 Cells.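 On cell number change: cells counted by Cell Tracker Red CMTPX staining in the red channel.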 The conditions noted are these: BODIPY lipid droplet fluorescence, 18-24 h; for cell number change: measured here: cell count max response, cells fed with added oleic acid. The procedure, abridged: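 Drosophila S3 cells got compounds at several concentrations plus oleic acid (400 uM solution). Laser-scanning cytometry with 488 nm excitation read lipid droplets at 500-530 nm and cells at 575-640 nm. Percent activity was relative to 20 uM Triacsin C.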

Where [1] appears, read: measured here: cell number channel AC50, cells fed with added oleic acid.
[2] abbreviates: measured here: lipid fluorescence (Fed channel) AC50, cells fed with added oleic acid.

For `CCOC(=O)N1CCN(C(=O)COC(=O)c2ccc(S(=O)(=O)N(CC)CC)cc2)CC1`, the cell number change is -0.628%. The half-maximal activity concentration (AC50) under setting [1] was 0.184 µM [falling, full curve, poor fit]. For the same molecule, under setting [2], the AC50 was 0.164 µM [falling, full curve].

Turning to `CCCn1c(/N=C/c2c[nH]c3ccccc23)nc2ccccc21`, the cell number change is -35.5%. In addition, the AC50 under setting [2] was 5.17 µM [rising, partial curve]. Regarding `CN(C)/C=C(\C#N)C(=O)N/N=C/c1ccc(F)cc1`, the cell number change was found to be 20.2%. The concentration at half-maximal activity (AC50) under setting [1] was 0.731 µM [rising, full curve, poor fit]. Besides, the AC50 under setting [2] is 1.16 µM [rising, full curve, poor fit].

`COc1ccccc1NC(=O)Cn1cc(C#N)c2ccccc21`: the AC50 under setting [2] is 2.06 µM [rising, partial curve]. In the case of `COc1ccc(-n2c(SCC(=O)N3CCN(c4ccccc4)CC3)nc3c(c2=O)SCC3)cc1`, the cell number change is -2.81%. For the same molecule, under setting [2], the AC50 is 0.517 µM [rising, full curve]. As to `CSCC[C@H](NC(=O)Cc1c(C)c2cc3c4c(oc3cc2oc1=O)CCCC4)C(=O)O`, the cell number change is 12.8%. Moreover, the half-maximal activity concentration (AC50) under setting [2] was 29.1 µM [falling, single point]. For the molecule `COc1ccc(-n2c(SCC(=O)Nc3nc(C)cs3)nnc2-c2ccoc2C)cc1`, the cell number change is -39.7%. The half-maximal activity concentration (AC50) under setting [1] is 0.731 µM [falling, full curve, poor fit]. In addition, under setting [2], the AC50 was 0.58 µM [falling, full curve, poor fit]. Regarding `CCCCn1c(N)c(N(CCC(C)C)C(=O)c2ccc(C)o2)c(=O)[nH]c1=O`, the cell number change was -20.5%. In addition, the AC50 under setting [2] is 2.06 µM [falling, partial curve, poor fit]. Take `CCOc1ccc(S(=O)(=O)NCCC(=O)N2CCN(c3ccccc3O)CC2)cc1`: the cell number change worked out at 30%. In addition, the AC50 under setting [1] was 0.291 µM [rising, single point]. `CC(=O)c1ccccc1OCC(O)Cn1ccnc1` (configuration not stated): the AC50 under setting [1] is 1.46 µM [rising, partial curve] and the AC50 under setting [2] is 5.8 µM [rising, full curve].

As to `CN(C)C(=O)C(OC(=O)c1ccc2c(c1)CCCC2)c1ccccc1` (configuration not stated), under setting [2], the half-maximal activity concentration (AC50) was 0.82 µM [falling, full curve]. Turning to `COc1ccccc1CN1CC(C(=O)N2CCN(c3ccc(F)cc3)CC2)CC1=O` (configuration not stated), the AC50 under setting [1] is 1.84 µM [rising, single point]. `CC(NC(=O)C(=O)NCCCn1ccnc1)c1ccccc1` (configuration not stated): the cell number change is 22%. The half-maximal activity concentration (AC50) under setting [2] was 2.06 µM [rising, full curve, poor fit]. `Cc1cccc(CNc2ncnc3ccc(-c4ccc5c(c4)OCO5)cc23)c1`: the cell number change is 3.27%. Moreover, the AC50 under setting [2] is 20.6 µM [falling, single point].

Consider `CCOc1ccc2oc(C(=O)NCc3ccccc3CN3CCCC3)c(C)c2c1`, for which the cell number change is -34.5%. The half-maximal activity concentration (AC50) under setting [1] was 16.4 µM [falling, partial curve]. Further, the half-maximal activity concentration (AC50) under setting [2] was 4.11 µM [falling, full curve, poor fit]. On to `COC(=O)c1c(NC(=O)CN2CCOCC2)sc2c1CCC(C)C2` (configuration not stated), for which the cell number change is -17.8%. The concentration at half-maximal activity (AC50) under setting [2] is 0.82 µM [rising, single point]. In the case of `CC(C)CCOc1ccc(C(=O)N2CCCC2C(=O)O)cc1` (configuration not stated), the AC50 under setting [2] is 2.06 µM [rising, partial curve, poor fit]. As for `CC1Cc2nc(SCC(=O)Nc3nc4ccccc4s3)n(C)c(=O)c2S1` (configuration not stated), the cell number change came out at 6.65%. For the same molecule, the AC50 under setting [2] is 6.51 µM [rising, single point].

`C/C(=N/NS(=O)(=O)c1ccc(F)cc1)c1ccc(NC(=O)c2ccc(C)o2)cc1`: the cell number change was 27.1%. As for `O=C(CC1NC(=O)NC1=O)NC1(C(=O)NC2CCCCC2)CCCCC1` (configuration not stated), the cell number change is -11.9%. In addition, the AC50 under setting [2] was 7.31 µM [falling, single point]. Regarding `COc1cc(/C=N/NC(=O)C[n+]2ccccc2)cc(OC)c1OC`, the cell number change was -11.4%. In addition, the concentration at half-maximal activity (AC50) under setting [2] was 1.03 µM [falling, full curve, poor fit].

On to `CCOc1ccc(N2C(=O)C3C(c4ccc(O)cc4)NC(CCSC)(C(=O)OC)C3C2=O)cc1` (configuration not stated), for which the cell number change is -20.8%. Also, under setting [2], the half-maximal activity concentration (AC50) was 0.0058 µM [falling, full curve, poor fit].

As for `CCOc1ccc(CCNC(=O)CCc2nc(-c3ccc(OC)cc3)no2)cc1OCC`, the cell number change was -61.2%. Moreover, the AC50 under setting [1] is 4.61 µM [falling, full curve]. Also, under setting [2], the AC50 is 18.4 µM [falling, partial curve].

On to `O=[N+]([O-])c1ccc2[nH]c3nc4ccccc4nc3c2c1`, for which the cell number change is 32.6%. Besides, the concentration at half-maximal activity (AC50) under setting [1] was 29.1 µM [rising, single point]. Also, the half-maximal activity concentration (AC50) under setting [2] is 6.51 µM [falling, single point]. Consider `CCCOP(=O)(OCCC)c1c([N+](=O)[O-])cc(C(F)(F)F)cc1[N+](=O)[O-]`, for which the cell number change is -11.3%. In addition, the concentration at half-maximal activity (AC50) under setting [1] is 6.51 µM [falling, single point]. Besides, the concentration at half-maximal activity (AC50) under setting [2] is 13 µM [falling, partial curve].

For the molecule `Fc1ccc2[nH]c3c(N4CCN(Cc5ccc6c(c5)OCO6)CC4)ncnc3c2c1`, the cell number change was -44.1%. Under setting [1], the AC50 was 7.31 µM [falling, partial curve, poor fit]. On to `O=C1COc2ccccc2N1Cc1c(F)cccc1Cl`, for which the cell number change was 15.1%. Moreover, the AC50 under setting [2] was 0.082 µM [rising, full curve, poor fit].

For `Cc1ccc(N(C(=O)c2sc(C)nc2C)C(C(=O)NC(C)(C)C)c2ccncc2)cc1` (configuration not stated), the cell number change was found to be 2.15%. The half-maximal activity concentration (AC50) under setting [2] is 0.411 µM [falling, single point].

Take `COc1cc(/C=C/C(=O)OCC(=O)NC2CC2)cc(S(=O)(=O)N2CCc3ccccc32)c1OC`: the cell number change was 9.51%. The same measure, in the same setting: the figure for `CC(C)(C)c1ccc(C(=O)NCC(=O)OCC(=O)Nc2ccc3c(c2)OCCO3)cc1` is 12.8%; for `CCCCCn1c(=S)[nH]c2cc(C(=O)N3CCN(C(=O)OCC)CC3)ccc2c1=O` it is -1.9%.

For `S=c1[nH]nc(-c2cnccn2)n1-c1ccccc1`, the cell number change was found to be 10.9%. In addition, the AC50 under setting [2] was 29.1 µM [rising, single point]. For the molecule `CCN(C(=O)COC(=O)c1oc2ccc(OC)cc2c1C)C1CCCCC1`, the cell number change was -53.9%. Moreover, under setting [1], the half-maximal activity concentration (AC50) was 29.1 µM [falling, single point]. In addition, the half-maximal activity concentration (AC50) under setting [2] is 29.1 µM [falling, single point]. As to `CCN1CCN(Cc2nc3cc(NC(=O)COc4ccc([N+](=O)[O-])cc4)ccc3n2C)CC1`, the cell number change came to 41.3%. For the same molecule, the half-maximal activity concentration (AC50) under setting [1] is 29.1 µM [rising, single point]. For `COc1ccc(-c2csc(NC(=O)Cc3ccccc3F)n2)c(OC)c1`, the cell number change was 19.2%. Besides, the AC50 under setting [2] is 5.17 µM [falling, single point]. With `C=CCn1c(SCC(=O)N2CCN(c3ccc(F)cc3)CC2)nnc1-c1cccs1`, under setting [2], the concentration at half-maximal activity (AC50) is 4.11 µM [rising, partial curve]. Regarding `COc1ccc(CCC(C)NCCc2ccc(Cl)cc2Cl)cc1` (configuration not stated), the cell number change is -48.4%. Also, the AC50 under setting [1] was 16.4 µM [falling, single point]. Consider `O=C(Nc1sc2c(c1C(=O)NCCO)CCCC2)c1ccco1`, for which the cell number change was -11.8%. Also, the concentration at half-maximal activity (AC50) under setting [2] is 2.82 µM [falling, partial curve].

Consider `Brc1ccc(Cn2c(-c3ccc(Br)o3)nc3ccccc32)o1`, for which the cell number change was -24.4%. The AC50 under setting [2] was 16.4 µM [rising, partial curve, poor fit]. For the molecule `COc1cccc(CN2CCCC(N3CCc4ccccc4C3)C2)c1O` (configuration not stated), the cell number change was -4.95%. For the same molecule, under setting [2], the AC50 is 6.51 µM [rising, partial curve]. In the case of `COc1ccc(OC)c(CNC(=O)C2CCN(S(=O)(=O)N3CCCCC3)CC2)c1`, the cell number change is -21.5%. With `CC1(C)Cc2ccccc2-c2nnc(SCc3ccc(C#N)cc3)n21`, the cell number change is -12.7%. The AC50 under setting [2] is 0.0731 µM [rising, full curve, poor fit]. Consider `CCOC(=O)N1CCC(NC(=O)c2cccc3c2C(=O)N(CCOC)C3)CC1`, for which the cell number change is 12.6%. Moreover, the AC50 under setting [2] was 1.64 µM [falling, partial curve]. Regarding `Cn1cc(Br)c(C(=O)N2CCCCCC2)n1`, the cell number change is -12.2%. Also, the concentration at half-maximal activity (AC50) under setting [2] was 0.92 µM [falling, full curve, poor fit].

`COC(=O)c1ccc(C(=O)OC)c(NC(=O)COC(=O)CC2CC3CCC2C3)c1` (configuration not stated): the AC50 under setting [1] was 1.84 µM [rising, partial curve] and the AC50 under setting [2] is 3.26 µM [rising, partial curve].

Consider `O=S(=O)(c1ccc(-c2nnc(SCc3ccccc3)o2)cc1)N1CCCC1`, for which the cell number change came out at 52.3%. The concentration at half-maximal activity (AC50) under setting [1] was 9.2 µM [rising, partial curve]. In addition, the AC50 under setting [2] was 2.06 µM [rising, single point].

Take `O=C1C=C(NCc2ccc(Cl)cc2Cl)C2(CCCCC2)O1`: the cell number change is -31.5%. In addition, under setting [1], the AC50 is 7.31 µM [falling, partial curve]. The AC50 under setting [2] is 16.4 µM [falling, partial curve]. On to `Cc1ccc(C)n1NC(=O)c1ccc([N+](=O)[O-])cc1`, for which the cell number change is -64.6%. For the same molecule, under setting [1], the AC50 is 10 µM [falling, partial curve, poor fit]. Further, under setting [2], the half-maximal activity concentration (AC50) was 3.55 µM [falling, partial curve, poor fit]. Take `CCCCNC(=O)c1ccc(Cn2c(=S)[nH]c3c([nH]c4ccc(OC)cc43)c2=O)cc1`: the cell number change was -47.9%. Under setting [1], the AC50 was 2.91 µM [falling, full curve]. Further, the half-maximal activity concentration (AC50) under setting [2] was 5.17 µM [falling, full curve]. For the molecule `C=CCSc1nnc(NC(=O)CSc2nc3ccccc3[nH]2)s1`, the cell number change was -12.3%.

As to `COc1ccc(C(=O)COC(=O)CCn2nnc(-c3cccs3)n2)cc1`, the cell number change is -8.89%. For the same molecule, the AC50 under setting [1] was 0.00651 µM [falling, full curve]. Also, under setting [2], the AC50 was 1.3 µM [falling, full curve]. Take `C/C(=N\NS(=O)(=O)c1cccc([N+](=O)[O-])c1)c1cc2ccccc2o1`: the AC50 under setting [2] is 29.1 µM [rising, single point]. `Fc1ccc(/C=N/NC(=S)Nc2cccnc2)cc1F`: the cell number change is -19.9%. Moreover, the AC50 under setting [2] was 0.461 µM [falling, partial curve, poor fit].

For `CCOc1ccc(-c2cc(C(=O)NCC3CCCO3)c3ccccc3n2)cc1` (configuration not stated), the cell number change came to 40.8%. Moreover, under setting [1], the AC50 is 6.51 µM [rising, partial curve]. Take `COc1ccc(C(=O)NCC2CCCN2S(=O)(=O)c2cccs2)cc1OC` (configuration not stated): the cell number change is 1.2%. Same read-out and setting: then `CC(NC(N)=O)C(=O)NCC(=O)OCc1ccccc1` (configuration not stated), with -30.4%. Consider `CCCNC(=O)c1ccc2c(c1)ncn2-c1ccccc1OC`, for which, under setting [1], the concentration at half-maximal activity (AC50) was 0.058 µM [rising, full curve, poor fit].

The AC50 is the concentration at which the activity in the assay is half-maximal. A high value points to activity only at high concentration.
